Targets include RNF43 R519X (human) (UniProt Q68DV7); V5-APC (UniProt P25054); RNF43 P524X (human) (UniProt Q68DV7).
Test in all cases: co-IP
In experiment [1] the target is RNF43–2×Flag–HA, wild type (human) (UniProt Q68DV7).
The target in experiment [2] is Axin1, endogenous (human (endogenous in HEK293T and T-REx-293)) (UniProt O15169).

Chains of the proteins cited; added tags and fusions are not shown. Lines headed by an entry give the natural chain unless they say otherwise; changes in a name come on top. Residues count along the entry.
UniProt Q68DV7, 24-783: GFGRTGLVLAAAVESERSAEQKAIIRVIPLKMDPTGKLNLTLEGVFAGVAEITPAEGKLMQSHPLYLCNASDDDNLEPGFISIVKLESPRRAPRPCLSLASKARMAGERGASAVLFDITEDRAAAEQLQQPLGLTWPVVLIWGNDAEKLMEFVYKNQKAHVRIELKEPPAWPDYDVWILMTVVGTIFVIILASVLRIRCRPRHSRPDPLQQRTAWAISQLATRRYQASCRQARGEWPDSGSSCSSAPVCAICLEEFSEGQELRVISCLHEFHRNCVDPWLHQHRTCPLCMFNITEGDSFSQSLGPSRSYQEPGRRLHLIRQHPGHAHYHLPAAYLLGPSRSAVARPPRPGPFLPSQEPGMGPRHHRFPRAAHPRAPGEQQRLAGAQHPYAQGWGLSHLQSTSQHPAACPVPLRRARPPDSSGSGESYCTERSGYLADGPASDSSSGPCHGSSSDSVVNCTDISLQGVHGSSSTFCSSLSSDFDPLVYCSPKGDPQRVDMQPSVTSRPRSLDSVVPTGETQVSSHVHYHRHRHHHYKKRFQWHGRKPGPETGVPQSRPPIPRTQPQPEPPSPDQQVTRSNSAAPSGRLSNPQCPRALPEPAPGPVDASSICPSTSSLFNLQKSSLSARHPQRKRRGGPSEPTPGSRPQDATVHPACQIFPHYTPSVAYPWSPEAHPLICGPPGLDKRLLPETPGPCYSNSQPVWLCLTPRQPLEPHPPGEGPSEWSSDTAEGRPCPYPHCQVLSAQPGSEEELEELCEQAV
UniProt Q68DV7, 24-518: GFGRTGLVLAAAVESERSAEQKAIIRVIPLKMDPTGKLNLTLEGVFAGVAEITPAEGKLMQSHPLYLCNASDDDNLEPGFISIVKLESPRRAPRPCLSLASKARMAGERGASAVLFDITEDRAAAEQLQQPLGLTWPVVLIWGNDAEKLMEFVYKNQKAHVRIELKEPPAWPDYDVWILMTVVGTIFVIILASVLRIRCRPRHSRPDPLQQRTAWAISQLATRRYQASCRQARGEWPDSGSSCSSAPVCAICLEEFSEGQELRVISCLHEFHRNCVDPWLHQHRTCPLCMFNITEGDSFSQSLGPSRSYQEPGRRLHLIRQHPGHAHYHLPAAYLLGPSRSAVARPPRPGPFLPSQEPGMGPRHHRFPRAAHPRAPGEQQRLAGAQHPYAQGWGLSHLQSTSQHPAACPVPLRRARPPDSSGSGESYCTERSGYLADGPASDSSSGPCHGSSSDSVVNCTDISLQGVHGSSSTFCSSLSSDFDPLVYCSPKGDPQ
UniProt Q68DV7, 24-523: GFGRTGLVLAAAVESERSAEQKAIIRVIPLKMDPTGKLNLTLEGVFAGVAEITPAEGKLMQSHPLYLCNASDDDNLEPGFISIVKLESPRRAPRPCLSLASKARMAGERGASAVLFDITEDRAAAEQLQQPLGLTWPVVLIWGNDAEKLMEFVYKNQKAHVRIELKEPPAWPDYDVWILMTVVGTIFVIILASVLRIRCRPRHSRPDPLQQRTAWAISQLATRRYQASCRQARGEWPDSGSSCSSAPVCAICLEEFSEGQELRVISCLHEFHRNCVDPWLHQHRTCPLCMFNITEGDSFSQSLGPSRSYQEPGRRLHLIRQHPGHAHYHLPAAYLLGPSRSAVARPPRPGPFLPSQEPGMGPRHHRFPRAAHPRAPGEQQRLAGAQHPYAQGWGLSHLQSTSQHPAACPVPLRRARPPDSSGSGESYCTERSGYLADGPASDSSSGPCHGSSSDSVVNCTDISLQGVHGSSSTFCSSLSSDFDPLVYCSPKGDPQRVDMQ
UniProt P25054, whole entry: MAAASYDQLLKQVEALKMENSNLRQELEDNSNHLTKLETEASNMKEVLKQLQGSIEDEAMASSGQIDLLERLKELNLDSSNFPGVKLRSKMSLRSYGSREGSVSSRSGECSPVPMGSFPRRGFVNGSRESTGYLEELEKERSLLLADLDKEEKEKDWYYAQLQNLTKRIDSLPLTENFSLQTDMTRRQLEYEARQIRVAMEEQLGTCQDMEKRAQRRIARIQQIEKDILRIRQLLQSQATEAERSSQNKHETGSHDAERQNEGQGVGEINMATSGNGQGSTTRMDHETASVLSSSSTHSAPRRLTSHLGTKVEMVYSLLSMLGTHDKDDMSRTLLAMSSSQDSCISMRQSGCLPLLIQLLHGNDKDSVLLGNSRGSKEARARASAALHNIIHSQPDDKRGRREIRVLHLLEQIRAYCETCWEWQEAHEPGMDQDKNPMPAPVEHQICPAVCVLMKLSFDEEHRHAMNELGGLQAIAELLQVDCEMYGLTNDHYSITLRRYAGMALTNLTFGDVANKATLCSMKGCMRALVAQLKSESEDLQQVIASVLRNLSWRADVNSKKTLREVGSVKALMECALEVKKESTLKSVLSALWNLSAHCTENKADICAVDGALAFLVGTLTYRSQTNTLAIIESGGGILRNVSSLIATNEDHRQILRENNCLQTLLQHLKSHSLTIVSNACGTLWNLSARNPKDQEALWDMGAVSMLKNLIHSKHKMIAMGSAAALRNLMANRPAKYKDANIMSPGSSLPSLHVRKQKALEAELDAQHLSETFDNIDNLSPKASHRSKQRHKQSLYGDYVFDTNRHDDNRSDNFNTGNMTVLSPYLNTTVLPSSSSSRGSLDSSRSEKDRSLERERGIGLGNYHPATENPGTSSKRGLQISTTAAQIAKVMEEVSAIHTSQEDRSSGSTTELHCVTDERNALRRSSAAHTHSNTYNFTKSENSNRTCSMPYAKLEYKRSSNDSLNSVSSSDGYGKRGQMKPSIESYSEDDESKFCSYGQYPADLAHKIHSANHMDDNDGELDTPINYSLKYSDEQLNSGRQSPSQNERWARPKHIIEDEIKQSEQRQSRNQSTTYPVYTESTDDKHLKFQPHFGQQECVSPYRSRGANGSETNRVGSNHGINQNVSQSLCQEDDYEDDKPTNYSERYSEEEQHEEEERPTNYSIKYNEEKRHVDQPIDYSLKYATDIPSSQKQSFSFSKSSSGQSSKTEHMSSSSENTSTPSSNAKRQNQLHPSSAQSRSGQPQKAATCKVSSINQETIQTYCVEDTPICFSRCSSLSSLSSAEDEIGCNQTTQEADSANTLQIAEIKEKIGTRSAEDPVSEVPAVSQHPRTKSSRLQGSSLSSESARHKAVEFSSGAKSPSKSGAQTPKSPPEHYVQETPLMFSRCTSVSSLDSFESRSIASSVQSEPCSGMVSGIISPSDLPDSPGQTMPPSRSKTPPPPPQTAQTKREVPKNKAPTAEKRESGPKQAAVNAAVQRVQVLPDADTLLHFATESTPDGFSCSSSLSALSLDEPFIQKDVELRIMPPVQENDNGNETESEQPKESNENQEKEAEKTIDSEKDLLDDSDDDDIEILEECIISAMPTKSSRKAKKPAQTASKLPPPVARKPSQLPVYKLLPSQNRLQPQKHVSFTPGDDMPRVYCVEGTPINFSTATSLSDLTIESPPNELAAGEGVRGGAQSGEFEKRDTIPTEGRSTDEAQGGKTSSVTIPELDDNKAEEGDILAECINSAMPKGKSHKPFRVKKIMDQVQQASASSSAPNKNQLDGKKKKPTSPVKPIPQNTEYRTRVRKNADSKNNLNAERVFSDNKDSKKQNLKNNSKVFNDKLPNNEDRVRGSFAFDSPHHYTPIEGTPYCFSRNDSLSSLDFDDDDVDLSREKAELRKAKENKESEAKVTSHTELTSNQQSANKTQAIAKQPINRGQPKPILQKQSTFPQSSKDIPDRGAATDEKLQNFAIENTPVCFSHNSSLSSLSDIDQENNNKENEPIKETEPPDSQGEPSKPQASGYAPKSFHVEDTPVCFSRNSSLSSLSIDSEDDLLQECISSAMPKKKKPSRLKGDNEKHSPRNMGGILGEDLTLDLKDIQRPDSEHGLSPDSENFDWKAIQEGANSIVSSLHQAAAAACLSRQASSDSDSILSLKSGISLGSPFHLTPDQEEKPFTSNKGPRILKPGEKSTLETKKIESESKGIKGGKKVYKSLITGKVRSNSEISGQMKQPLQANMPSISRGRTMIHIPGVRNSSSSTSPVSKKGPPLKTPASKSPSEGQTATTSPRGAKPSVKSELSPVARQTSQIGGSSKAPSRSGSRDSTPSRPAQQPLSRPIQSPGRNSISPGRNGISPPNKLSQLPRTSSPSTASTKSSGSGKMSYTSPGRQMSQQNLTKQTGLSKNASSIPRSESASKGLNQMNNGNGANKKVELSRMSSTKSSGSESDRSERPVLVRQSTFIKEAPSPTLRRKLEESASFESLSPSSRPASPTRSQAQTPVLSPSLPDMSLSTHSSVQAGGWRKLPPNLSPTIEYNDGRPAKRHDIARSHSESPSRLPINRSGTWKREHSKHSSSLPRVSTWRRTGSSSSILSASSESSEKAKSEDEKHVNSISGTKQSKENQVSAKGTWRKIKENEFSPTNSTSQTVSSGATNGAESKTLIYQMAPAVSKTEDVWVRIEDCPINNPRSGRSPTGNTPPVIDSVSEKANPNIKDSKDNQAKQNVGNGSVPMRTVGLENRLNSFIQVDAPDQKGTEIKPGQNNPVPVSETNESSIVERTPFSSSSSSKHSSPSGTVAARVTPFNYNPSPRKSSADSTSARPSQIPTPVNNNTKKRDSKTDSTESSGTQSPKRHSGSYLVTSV
UniProt O15169, whole entry: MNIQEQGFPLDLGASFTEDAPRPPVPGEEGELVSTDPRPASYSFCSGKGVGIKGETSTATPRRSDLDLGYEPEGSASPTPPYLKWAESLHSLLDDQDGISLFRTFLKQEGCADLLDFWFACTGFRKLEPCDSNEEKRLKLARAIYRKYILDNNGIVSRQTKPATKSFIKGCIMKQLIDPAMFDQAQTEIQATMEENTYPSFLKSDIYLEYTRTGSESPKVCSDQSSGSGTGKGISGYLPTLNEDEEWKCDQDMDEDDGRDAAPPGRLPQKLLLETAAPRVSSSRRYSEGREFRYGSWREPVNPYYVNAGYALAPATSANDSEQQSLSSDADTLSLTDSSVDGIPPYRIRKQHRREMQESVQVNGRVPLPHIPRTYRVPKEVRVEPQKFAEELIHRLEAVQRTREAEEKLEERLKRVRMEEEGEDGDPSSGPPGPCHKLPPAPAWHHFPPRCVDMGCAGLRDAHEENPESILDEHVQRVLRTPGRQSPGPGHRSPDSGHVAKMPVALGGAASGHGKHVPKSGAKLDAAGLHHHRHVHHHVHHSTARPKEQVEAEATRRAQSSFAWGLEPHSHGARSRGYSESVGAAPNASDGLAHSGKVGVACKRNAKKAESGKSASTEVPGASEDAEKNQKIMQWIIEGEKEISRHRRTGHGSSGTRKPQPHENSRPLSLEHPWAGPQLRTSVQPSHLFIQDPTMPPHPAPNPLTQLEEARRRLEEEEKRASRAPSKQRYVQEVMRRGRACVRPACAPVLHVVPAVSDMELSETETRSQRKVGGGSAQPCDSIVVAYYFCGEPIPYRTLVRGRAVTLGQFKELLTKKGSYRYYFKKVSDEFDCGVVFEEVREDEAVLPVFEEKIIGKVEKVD
UniProt P49674, whole entry: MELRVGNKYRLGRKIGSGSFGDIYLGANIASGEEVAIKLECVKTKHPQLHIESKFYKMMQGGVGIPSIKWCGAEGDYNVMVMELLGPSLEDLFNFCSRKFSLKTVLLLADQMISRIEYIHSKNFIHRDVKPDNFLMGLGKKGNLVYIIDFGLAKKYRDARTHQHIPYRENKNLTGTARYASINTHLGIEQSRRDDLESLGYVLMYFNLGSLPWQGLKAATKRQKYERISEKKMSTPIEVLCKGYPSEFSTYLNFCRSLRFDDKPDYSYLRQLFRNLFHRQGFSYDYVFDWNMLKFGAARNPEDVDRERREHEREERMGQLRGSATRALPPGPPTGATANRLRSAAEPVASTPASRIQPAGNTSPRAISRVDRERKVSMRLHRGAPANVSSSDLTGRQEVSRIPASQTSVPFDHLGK
UniProt P49841, whole entry: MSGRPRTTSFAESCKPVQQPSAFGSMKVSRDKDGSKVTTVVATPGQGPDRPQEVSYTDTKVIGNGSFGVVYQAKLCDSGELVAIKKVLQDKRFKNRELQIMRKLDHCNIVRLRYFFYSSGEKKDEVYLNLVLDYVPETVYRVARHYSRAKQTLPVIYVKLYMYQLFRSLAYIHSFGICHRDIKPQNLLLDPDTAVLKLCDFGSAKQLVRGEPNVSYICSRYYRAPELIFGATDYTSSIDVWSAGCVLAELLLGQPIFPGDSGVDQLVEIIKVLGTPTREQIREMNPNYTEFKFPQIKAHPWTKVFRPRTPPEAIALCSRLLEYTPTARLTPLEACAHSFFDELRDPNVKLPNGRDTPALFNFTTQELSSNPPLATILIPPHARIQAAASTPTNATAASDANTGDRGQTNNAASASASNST

These are yes or no findings as the source states them, for the method shown. In cells and extracts the contact can be indirect. Some results given as binding are weak or reduced against the parent protein; the word gives no strength.

As for “Axin1, endogenous (from UniProt O15169 1-862)”, the binding result (in experiment [1]; with RNF43 R519X (human)) was “binds” each time.
For “Casein kinase 1 epsilon, endogenous (from UniProt P49674 1-416) (enzyme)”, the binding entry (in experiment [1]; with RNF43 R519X (human)) was “binds” throughout.
On to “GSK3β, endogenous (from UniProt P49841 1-420) (enzyme)”, for which, in experiment [1], the binding result is listed as “binds”.
As for “RNF43 P524X (from UniProt Q68DV7 24-523) (domain or fragment)”, the binding entry in the experiment with V5-APC is “binds”.
Consider “RNF43 R519X (from UniProt Q68DV7 24-518) (domain or fragment)”, for which the binding result in experiment [2] is reported as “binds”.
As for “RNF43–2×Flag–HA, wild type (from UniProt Q68DV7 24-783)”, the binding result (with V5-APC; in experiment [2]) was “binds” in each case.
On to “myc-GSK3β (from UniProt P49841 1-420) (enzyme)”, for which the binding entry (in experiment [1]; with RNF43 P524X (human)) was “binds” each time.

For the origin of these results see publication doi:10.1101/748574.
